Structures are written as SMILES. The campaign covered roughly 1,500 compounds. About 430 (29%) were called active. The rule behind the calls is not given here. The list shows a part of the results, in another mix than the full data. Measured potencies and affinities stand elsewhere.

This assay can be described thus: insulin secretion activators without glucose, dose response, counter-screen for glucose-dependent insulin secretion activators, cell-based, INS-1E, Gaussia luciferase, luminescence, cherry-pick (AID 977606).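 Note: 0% = median of neutral control wells.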 Particulars: INS-1E Gaussia luciferase insulin secretion, no glucose; at 35 µM (top of the series). (In general: A counterscreen serves to expose hits that act by an unwanted route or on another target.)
Turning to `c1ccc(N2[C@@H]3CC[C@H]2c2ccncc2C3)cc1`, the activation was inactive: -3.04%. `COC(=O)C[C@H]1CC[C@H]2NC[C@@H](O)COC[C@@H]2O1`: the activation is inactive: -0.907%. Consider `CC(C)c1cc(Br)c(NC(=O)Nc2cccnc2)c(Br)c1`, for which the activation was inactive: -9.66%. In the case of `Cc1cccc(CN2CCN(C(=O)Cc3ccccc3)CC2)c1` it was inactive: -1.48%; in that of `CC(=NC(C)c1ccccc1)c1c(O)[nH]c(=O)[nH]c1=O` (stereo not drawn), inactive: 7%. As for `O=C(c1cccc2ccccc12)C1CCCN(Cc2ccon2)C1` (stereo not drawn), the figure is inactive: 5.89%; as for `CCC(=NC(C)c1ccccc1)c1c(O)[nH]c(=O)[nH]c1=O` (stereo not drawn), inactive: -0.859%; as for `CC(C)Nc1nc(Cl)nc(NC(C)C)n1`, inactive: 5.36%.

With `COc1ccc(C(=O)C2CCCN(Cc3ccc(C)s3)C2)cc1OC` (stereo not drawn), the activation was inactive: -10.2%. As for `COc1ccc(CN2CCN(Cc3ccccc3F)CC2)cc1`, the figure is inactive: 8.57%; as for `Cc1nc2ccccc2c(=O)n1-c1ccc(Cl)c(Cl)c1`, inactive: 3.66%. In the case of `C=CCSc1nc2c(c(-c3ccsc3)c1C#N)CN(C)CC2` it was inactive: -3.9%; in that of `CCNc1nc(Cl)nc(NC(C)C)n1`, inactive: -11.8%. As for `Cc1cc(Br)cn2c(CC(=O)N3CCCCC3)c(-c3ccc(F)cc3)nc12`, the figure is inactive: -11.5%.

For `COc1nc(NC(C)C)nc(NC(C)C)n1`, the activation was inactive: -3.46%. As for `COc1cc(C(=O)OC2C[C@H]3CC[C@@H](C2)N3C)ccc1O` (stereo partly drawn), the figure is inactive: -12.3%. Regarding `Cc1[nH]c2ccccc2c1CCNCc1cccnc1`, the activation is inactive: -6.49%. For the compound `C=C(C)Cn1c(=O)n(CC2CS2)c2ccccc21` (stereo not drawn), the activation is inactive: 17.1%.

Source of the values: PubChem BioAssay AID977606 (Broad Institute, 2014).
